{"source": "PubChem BioAssay (EPA / NIEHS)", "note": "The shares of active, inactive and inconclusive entries below differ from those in the screen. A potency beside an inconclusive call is a rough fit, not a confirmed value. Calls of active or inactive are those of the source. The calls were made as follows: active = hit-call score of the fitted dose curve at least 0.9, where 1 is the maximum; inconclusive = response in the unintended direction; inactive = score below 0.9.", "data": [{"read-out": "glucuronosyltransferase (UGT1A1), UGT1A1 (gene 54658)", "experiment": "CLD_UGT1A1_48hr: CellzDirect (CLD) Gene Expression Assay for glucuronosyltransferase (UGT1A1) at 48 hours (AID 2283709);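 also: actives increase expression relative to DMSO so potency refers to induction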", "experimental": "CLD_48hr is a cell-based, multiplexed-readout assay that uses hepatocyte, a human liver primary cell, with measurements taken at 48 hours after chemical dosing in a 96-well plate.CLD_UGT1A1_48hr is one of 16 assay component(s) measured or calculated from the CLD_48hr assay. It is designed to make measurements of mRNA induction, a form of inducible reporter, as detected with chemiluminescence signals by Quantitative Nuclease Protection Assay (qNPA) technology.Data from the assay component CLD_UGT1A1_48hr was analyzed at the endpoint, CLD_UGT1A1_48hr, in the positive analysis fitting direction relative to DMSO as the negative control and baseline of activity. Using a type of inducible reporter, gain-of-signal activity can be used to understand changes in the reporter gene as they relate to the gene UGT1A1. Furthermore, this assay endpoint can be referred to as a primary readout. To generalize the intended target to other relatable targets, this assay endpoint is annotated to the transferase intended target family, where subfamily is glucuronosyltransferase.\nHuman hepatocyte cultures were treated daily for two consecutive days with fresh dosing solutions containing appropriate concentrations of the 320 ToxCast chemicals (chemical identities were blinded to CellzDirect and other ToxCast collaborators), vehicle control (0.2% DMSO), and positive control inducers as summarized in Table 1. Due to the large number of treatment groups and chemicals examined, the ToxCast chemicals were divided into two groups (spanning two independent cultures of hepatocytes from separate donor preparations (Hu778: ToxCast plates 1 and 2; Hu776: ToxCast plates 3 and 4). Each preparation of human hepatocyte cultures was treated with respective vehicle control, medium only control, set of six positive controls/reference chemicals for the five hepatic receptor pathways, and a subset of eight of the ToxCast chemicals (indoxacarb, pyrithiobac-sodium, norflurazon, cyhalofop-butyl, methomyl, thiram, acetochlor, and propiconazole). These replicate data, coupled with internal replicates designed within the blinded ToxCast chemical library, provided additional data to evaluate interindividual differences between hepatocyte preparations and their potential impact on chemical profiles.Cell morphology and integrity were evaluated using phase-contrast microscopy as an indicator of hepatocyte cell health (Tyson & Green, 1987). Cultures for each treatment group (i.e., media, vehicle [0.2% DMSO], positive control inducers [multiple concentrations], and the ToxCast chemicals [multiple concentrations]) were observed and cell morphology was assessed relative to vehicle control cultures at each harvest time point (0, 6, 24, or 48 h). […] Images were evaluated at the conclusion of the study to assess changes in cell integrity and account for the effects of chemical exposure on uncharacteristic changes in concentration-dependent gene expression profiles. The results from these determinations of apparent cytotoxicity were annotated (yes/no) alongside the corresponding qNPA data for reference.At the conclusion of each treatment period, hepatocyte cultures (96-well) were washed with 1 volume of HBSS, lysed by addition of 25 ul ArrayPlate lysis buffer (HTG, Tucson, AZ), and 70 ul/well of Denaturation Oil, denatured by incubation at 95C for 10 min, and frozen at approximately -70C until analysis by nuclease protection assay (qNPA) (Roberts et al., 2007). For qNPA analysis, cell lysates were thawed at 50C for approximately 30 min, qNPA probes were added, and samples were incubated at 95C for 10 min to begin the detection process by denaturing the target RNA, dissociating the duplexes and secondary structure hybridization. At the conclusion of the hybridization period, S1 nuclease reagent was added to each sample to digest all nonprotected nucleotides at 50C for 60-90 min. […]", "values": [{"compound": "Cc1cnc(C2=NC(C)(C(C)C)C(=O)N2)c(C(=O)O)c1", "note": "(stereo not given)", "AC50": "inconclusive: 20 µM"}, {"compound": "Cc1nn(-c2cc(NS(C)(=O)=O)c(Cl)cc2Cl)c(=O)n1C(F)F", "outcome": "inactive"}, {"compound": "CCOP(=S)(OCC)Oc1nc(Cl)n(C(C)C)n1", "AC50": "active: 1.9 µM"}, {"compound": "FC(F)C(F)(F)OCC(Cn1cncn1)c1ccc(Cl)cc1Cl", "note": "(stereo not given)", "AC50": "inconclusive: 34.5 µM"}, {"compound": "N#CSCSC#N", "AC50": "inconclusive: 5.09 µM"}, {"compound": "CCCOc1nn(C(=O)NS(=O)(=O)c2ccccc2C(=O)OC)c(=O)n1C", "outcome": "inactive"}, {"compound": "COP(=O)(OC)C(O)C(Cl)(Cl)Cl", "note": "(stereo not given)", "AC50": "active: 0.0665 µM"}, {"compound": "CC1=C(C(=O)Nc2ccccc2)SCCO1", "outcome": "inactive"}, {"compound": "O=c1ccc(=O)[nH][nH]1", "AC50": "inconclusive: 20 µM"}, {"compound": "O=C(O)c1nc(Cl)ccc1Cl", "AC50": "inconclusive: 20 µM"}, {"compound": "CCCCN(CC)c1c([N+](=O)[O-])cc(C(F)(F)F)cc1[N+](=O)[O-]", "AC50": "active: 7.05 µM"}, {"compound": "CN(C)[C@@H]1C(=O)C(C(N)=O)=C(O)[C@@]2(O)C(=O)C3=C(O)c4c(O)cccc4[C@@](C)(O)[C@H]3[C@H](O)[C@@H]12", "AC50": "inconclusive: 20 µM"}, {"compound": "Nc1nc(N)nc(NC2CC2)n1", "AC50": "inconclusive: 32.7 µM"}, {"compound": "O=C(O)c1c(Cl)ccc2cc(Cl)cnc12", "AC50": "inconclusive: 0.0297 µM"}, {"compound": "CN1COCN(Cc2cnc(Cl)s2)C1=N[N+](=O)[O-]", "AC50": "inconclusive: 0.00848 µM"}, {"compound": "COC(=O)N(OC)c1ccccc1COc1ccn(-c2ccc(Cl)cc2)n1", "AC50": "inconclusive: 20 µM"}, {"compound": "Cc1ccc(N=CN(C)C=Nc2ccc(C)cc2C)c(C)c1", "AC50": "inconclusive: 37.4 µM"}, {"compound": "CSC(=O)c1c(C(F)F)nc(C(F)(F)F)c(C(=O)SC)c1CC(C)C", "outcome": "inactive"}, {"compound": "CCOP(=S)(OCC)Oc1ccc([N+](=O)[O-])cc1", "AC50": "active: 2.67 µM"}, {"compound": "Nc1cnn(-c2ccccc2)c(=O)c1Cl", "AC50": "inconclusive: 20 µM"}]}]}
